One assay relates to P. falciparum 3D7. Nature of the assay: SYBR Green I fluorescence antiplasmodial assay, 3D7. In kind it is cell-based. To be noted: Plasmodium falciparum, 3D7, 72 h, read-out: 3D7 EC50.
For a further assay, the system named is P. falciparum strain Dd2. Nature of the assay: SYBR Green I fluorescence antiplasmodial assay, Dd2. Type of assay: cell-based. The conditions noted are these: Plasmodium falciparum, DD2, read-out: Dd2 EC50 (unit inferred).

Each structure is given as a SMILES string.

Among the data in PMC8822587 (ACS infectious diseases, 2021) are EC50 values, retold here.

By EC50 is commonly meant the midpoint of the concentration-response curve.

For the molecule `O=C(CCCCCCC(=O)Nc1ccccc1)NO` [SAHA, suberanilohydroxamic acid], the EC50 with P. falciparum 3D7 was determined as 160 ± 30 nM; in the assay with P. falciparum strain Dd2, 100 ± 20 nM.
